Laboratory results published in publication PMC12016516.
These are yes or no findings as the source states them, for the method shown. In cells and extracts the contact can be indirect. A yes stands for co-enrichment or nearness to the bait. Other partners may have been found. Values belong to the binder of their own block, whether it stands above or below them.

The chains behind the UniProt entries cited, without tags or fusion partners. Where a name states a change or a piece, a line headed by the entry shows the natural chain unless it says otherwise.
UniProt Q5JIJ6: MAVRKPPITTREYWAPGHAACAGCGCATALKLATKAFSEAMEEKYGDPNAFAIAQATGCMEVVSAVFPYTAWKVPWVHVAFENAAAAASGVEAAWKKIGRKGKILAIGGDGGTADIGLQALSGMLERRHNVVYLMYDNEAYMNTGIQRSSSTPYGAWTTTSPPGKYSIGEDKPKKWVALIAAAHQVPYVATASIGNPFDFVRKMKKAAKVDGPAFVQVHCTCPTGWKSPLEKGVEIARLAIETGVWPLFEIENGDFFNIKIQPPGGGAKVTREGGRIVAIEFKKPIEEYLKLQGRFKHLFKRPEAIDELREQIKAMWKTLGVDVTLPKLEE
UniProt Q5JE61: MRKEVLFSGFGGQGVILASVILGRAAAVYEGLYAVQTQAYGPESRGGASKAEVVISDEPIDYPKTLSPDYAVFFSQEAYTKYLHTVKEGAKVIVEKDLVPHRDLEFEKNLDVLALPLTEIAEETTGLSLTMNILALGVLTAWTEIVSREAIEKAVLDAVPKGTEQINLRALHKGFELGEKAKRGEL

What was measured:
Assay in all cases: affinity purification with mass spectrometry; HA- and His6-tagged bait made from its native locus, captured from clarified T. kodakarensis lysate on a Ni2+-charged chelating column (buffer A: 10 mM Tris HCl pH 8.0, 500 mM NaCl, 10% glycerol), eluted with an imidazole gradient; pooled fractions identified by MuDPIT LC-MS/MS and compared with the parental strain TS559 (P < 0.05, log2 fold change ≥ 2); cells grown at 85°C with (+S˚) or without (–S˚) elemental sulfur
[1] = biological target: T1, Formate dehydrogenase, [4Fe-4S] cluster-binding protein, FDHγ3 (Thermococcus kodakarensis) (UniProt Q5JHV9)
T1 sequence: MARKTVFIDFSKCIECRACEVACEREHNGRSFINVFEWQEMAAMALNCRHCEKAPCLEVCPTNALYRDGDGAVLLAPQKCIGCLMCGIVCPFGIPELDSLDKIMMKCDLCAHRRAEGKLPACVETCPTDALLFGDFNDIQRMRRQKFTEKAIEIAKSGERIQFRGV

[2] = biological target: T2, [4Fe-4S] cluster-binding protein associated with FDH, FDHγ4 (Thermococcus kodakarensis) (UniProt Q5JHV8)
T2 sequence: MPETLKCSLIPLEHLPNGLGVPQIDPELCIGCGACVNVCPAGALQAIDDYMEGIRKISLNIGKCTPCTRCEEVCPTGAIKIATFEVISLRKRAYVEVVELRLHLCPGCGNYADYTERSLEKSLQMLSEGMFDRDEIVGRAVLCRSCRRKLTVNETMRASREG

[3] = biological target: T3, Pyruvate:ferredoxin oxidoreductase, α subunit (Thermococcus kodakarensis) (UniProt Q5JIJ7)
T3 sequence: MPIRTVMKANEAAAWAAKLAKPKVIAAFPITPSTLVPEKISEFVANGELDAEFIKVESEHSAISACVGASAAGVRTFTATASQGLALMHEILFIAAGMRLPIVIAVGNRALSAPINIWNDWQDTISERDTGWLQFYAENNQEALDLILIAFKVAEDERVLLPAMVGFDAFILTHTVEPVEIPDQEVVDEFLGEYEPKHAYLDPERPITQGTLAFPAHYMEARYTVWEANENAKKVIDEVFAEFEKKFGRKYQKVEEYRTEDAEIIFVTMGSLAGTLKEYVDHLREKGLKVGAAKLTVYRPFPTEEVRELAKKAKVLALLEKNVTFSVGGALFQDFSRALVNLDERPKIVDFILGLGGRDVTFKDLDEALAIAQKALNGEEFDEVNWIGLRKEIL

[4] = biological target: Pyruvate:ferredoxin oxidoreductase, β subunit (Thermococcus kodakarensis) (UniProt Q5JIJ6)
[5] = biological target: T4, 2-Oxoisovalerate-ferredoxin oxidoreductase, γ subunit (Thermococcus kodakarensis) (UniProt Q5JIK2)
T4 sequence: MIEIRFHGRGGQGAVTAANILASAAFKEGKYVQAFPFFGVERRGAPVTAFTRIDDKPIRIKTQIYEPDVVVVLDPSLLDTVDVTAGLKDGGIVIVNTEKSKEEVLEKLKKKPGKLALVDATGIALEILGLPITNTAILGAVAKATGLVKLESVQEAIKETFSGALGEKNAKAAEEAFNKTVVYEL

[6] = biological target: T5, Geranylgeranyl reductase (Thermococcus kodakarensis) (UniProt Q5JE27)
T5 sequence: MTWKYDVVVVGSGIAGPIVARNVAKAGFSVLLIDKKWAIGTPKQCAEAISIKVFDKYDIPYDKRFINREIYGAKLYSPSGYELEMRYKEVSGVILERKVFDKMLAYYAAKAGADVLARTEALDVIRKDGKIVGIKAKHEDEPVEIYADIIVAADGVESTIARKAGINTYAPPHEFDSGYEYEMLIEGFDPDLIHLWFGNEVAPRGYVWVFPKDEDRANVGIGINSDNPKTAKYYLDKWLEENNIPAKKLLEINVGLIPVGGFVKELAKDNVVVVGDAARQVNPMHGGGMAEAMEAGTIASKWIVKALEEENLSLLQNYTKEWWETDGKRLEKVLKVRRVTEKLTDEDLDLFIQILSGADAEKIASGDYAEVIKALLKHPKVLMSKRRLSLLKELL

[7] = biological target: T6, Pyruvate:ferredoxin oxidoreductase, δ subunit (Thermococcus kodakarensis) (UniProt Q5JIJ8)
T6 sequence: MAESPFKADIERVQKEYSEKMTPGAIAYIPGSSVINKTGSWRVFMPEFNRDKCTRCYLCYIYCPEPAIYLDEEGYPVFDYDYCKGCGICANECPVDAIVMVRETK

[8] = biological target: T7, 2-Oxoacid:ferredoxin oxidoreductases, β2 subunit (Thermococcus kodakarensis) (UniProt Q5JE71)
T7 sequence: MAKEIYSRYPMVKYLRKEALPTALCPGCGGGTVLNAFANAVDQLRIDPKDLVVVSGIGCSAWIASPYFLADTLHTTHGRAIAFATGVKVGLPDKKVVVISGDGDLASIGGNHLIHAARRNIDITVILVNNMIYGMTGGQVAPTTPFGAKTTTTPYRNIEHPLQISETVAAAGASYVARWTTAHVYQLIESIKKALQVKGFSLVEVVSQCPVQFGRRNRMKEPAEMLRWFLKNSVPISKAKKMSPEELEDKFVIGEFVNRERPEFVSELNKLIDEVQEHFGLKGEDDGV

[9] = biological target: T8, 2-Oxoacid:ferredoxin oxidoreductase, α2 subunit (Thermococcus kodakarensis) (UniProt Q5JE85)
T8 sequence: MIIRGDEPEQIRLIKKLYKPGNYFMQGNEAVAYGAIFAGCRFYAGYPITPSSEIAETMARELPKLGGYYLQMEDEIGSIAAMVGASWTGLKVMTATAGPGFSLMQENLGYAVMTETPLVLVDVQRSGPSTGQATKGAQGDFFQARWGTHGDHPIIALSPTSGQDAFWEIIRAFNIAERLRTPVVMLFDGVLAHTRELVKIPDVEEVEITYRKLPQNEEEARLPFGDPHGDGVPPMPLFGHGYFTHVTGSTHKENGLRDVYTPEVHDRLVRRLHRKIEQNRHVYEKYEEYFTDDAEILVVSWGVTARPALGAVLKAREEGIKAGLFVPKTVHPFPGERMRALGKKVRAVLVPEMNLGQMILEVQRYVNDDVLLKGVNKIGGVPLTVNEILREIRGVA

[10] = biological target: T9, Membrane-bound sulfane reductase, NiFe-hydrogenase large subunit 2, MBS-L (Thermococcus kodakarensis) (UniProt Q5JGG2)
T9 sequence: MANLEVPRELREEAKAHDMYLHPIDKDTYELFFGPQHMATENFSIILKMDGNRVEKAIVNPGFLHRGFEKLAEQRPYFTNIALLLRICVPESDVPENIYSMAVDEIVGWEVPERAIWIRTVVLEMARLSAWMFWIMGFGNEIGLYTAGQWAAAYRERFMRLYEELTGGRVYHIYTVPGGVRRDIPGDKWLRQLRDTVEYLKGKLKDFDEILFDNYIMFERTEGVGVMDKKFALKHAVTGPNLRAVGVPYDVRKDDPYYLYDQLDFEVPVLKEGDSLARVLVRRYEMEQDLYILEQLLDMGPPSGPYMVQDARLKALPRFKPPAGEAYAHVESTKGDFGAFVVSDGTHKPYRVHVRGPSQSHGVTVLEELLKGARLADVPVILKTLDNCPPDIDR

[11] = biological target: 2-Oxoacid:ferredoxin oxidoreductase, γ1 subunit (Thermococcus kodakarensis) (UniProt Q5JE61)

binding [1]: binds | binding [2]: binds | binding [3]: binds | binding [4]: binds | binding [5]: binds | binding [6]: binds | binding [7]: binds
B1: Rubrerythrin Mn-catalase (protein, UniProt Q5JHY4 1-174)
chain: MEVTEKEIFEIAVNSEIRAKEAYEKLASMTKSDIIRDELLFLAKEEDKHREIIEKMAERFAAEGGESKKIEMEVMGEFKVIAEKMAEAIKKPDINLDEIYEIAMQAELVSEKLYKELAKYASNEKTKLLLEMLADMERNHYNILKKQYDYIMRYPELYKEELYDQLMKDINFNF

binding [8]: binds | binding [9]: binds | binding [10]: binds | binding [11]: binds
B2: RBR3 (TK1056) (protein, UniProt Q5JDZ0 1-158)
chain: MNELEALALALEVEKNELKFYLKLARKTTDERARKMFLFLAKEEAEHWDLFEEKFVERLIEKCELPPVDKELAQKLIVEEPETLSEVEAVKIGMEQEKLTWEFYEKAAKEAEHESVRRLFEELAKVEKGHYELLKAQYDSVMQTGIWMDYQDFSLEVD
